# Data reported in PubChem BioAssay AID1259415 (National Center for Advancing Translational Sciences (NCATS), 2018).
# The whole screen tested about 410,000 compounds, of which about 18,000 (4.4%) were called active. Inconclusive results, whose numbers are uncertain, are shown with a selection of clear calls. No stated cut-off is given here; in the data, active means activity change below about -60%; inconclusive means no clear call, values can overlap the other calls; inactive means above about -39%.
# Experiment: qHTS Assay for inhibitors of the human cytomegalovirus (HCMV)
# Settings: HFF cells, HCMV-luciferase reporter, 72 h; at 57.5 µM; active compounds read low
# How it was run: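 Two compound doses tested in HFFs infected with HCMV-luciferase, MOI 1 PFU/cell, 72 h at 37C. Lysate luminescence read with OneGlo; data normalized against buffer-only and 10uM Salinomycin inhibitor controls.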
# On the % scale 0 is the no-effect control and ±100 the full control effect.
row,SMILES,"activity change, negative = inhibition"
1,CC(=O)c1c(C)n([O-])c2cc(F)c(F)cc2[n+]1=O,inconclusive: -45.8%
2,CCc1sc(C(=O)N2CCN(c3ncccn3)CC2)cc1Br,inactive: -21.4%
3,O=c1[nH]c(=S)[nH]c2c1CN(Cc1ccc(F)cc1)CC2,inconclusive: -45.6%
4,O=C(CCc1ccccc1)Nc1ccccc1C(=O)NCc1ccco1,inactive: 33.1%
5,O=C(O)/C=C\C(=O)Nc1ccc(N2CCN(c3ccc(Cl)cc3)CC2)cc1,inconclusive: -40.1%
6,Cc1cccc(NC(=O)CN2C(=O)S/C(=C\c3cc(C)n(C)c3C)C2=O)c1,active: -62.5%
7,CCCN(CCC)c1ccc(/C=C/c2ccc3cc(OCC)ccc3n2)cc1,inconclusive: -49.3%
8,O=C(CSc1n[nH]c(-c2ccccn2)n1)Nc1ccc(Cl)cc1,active: -95.6%
9,CCCOC(=O)c1ccc(NC(=O)CSC2=Nc3ccccc3C3CC=NN23)cc1 (stereo not given),inactive: 53.9%
10,CCn1c(C)nnc1SCC(=O)Nc1nccs1,inactive: 14%
11,COc1ccc(C(=O)Nc2cc(-c3nc4ncccc4o3)ccc2C)cc1Br,inactive: -5.18%
12,O=C(NC1CC(=O)N(c2cccc(F)c2)C1)c1ccc(S(=O)(=O)N2CCCCC2)cc1 (stereo not given),inconclusive: -48.4%
13,Cc1ccc2c(c1)C(=C(C#N)C#N)CCN2,inconclusive: -40.5%
14,[N-]=[N+]=NC(c1ccccc1)C(NC(=O)c1cc(C(F)(F)F)cc(C(F)(F)F)c1)c1ccccc1 (stereo not given),inconclusive: -52.3%
15,COC(=O)c1ccc(C(=O)OC)c(NC(=O)CSc2cccc[n+]2[O-])c1,inconclusive: -47.5%
16,O=C(NCCCN1CCCC1)c1ccc2c(c1)N(Cc1ccc(F)cc1)C(=O)c1ccccc1S2=O (stereo not given),inconclusive: -42.2%
17,C/C(=N\NC(=O)c1cc2ccccc2cc1O)c1ccccn1,active: -98.5%
18,CCCOc1ccccc1C(=O)N1CCCCC1CCN1CCCCC1 (stereo not given),active: -69.6%
19,O=C1C2CCCN2C(c2cccc(F)c2)N1c1cccc(Cl)c1 (stereo not given),inconclusive: -41.4%
20,CCCOC(=O)c1[nH]c2c(c1C)C(=O)CC(c1ccc(OC)c(OC)c1)C2 (stereo not given),inconclusive: -41.3%
21,CNc1nc2c(c(=O)n(C)c(=O)n2C)n1CCCc1ccccc1,inconclusive: -50.6%
22,CC1=C(C(=O)OCC2CCCO2)C(c2ccccc2)C2=C(CC(C)(C)CC2=O)N1 (stereo not given),inconclusive: -55.8%

row,SMILES,"activity change, negative = inhibition"
1,O=C(Nc1ccccc1C(=O)N1CCOCC1)c1noc2c1CCCC2,inactive: 35.8%
2,CN1C(=O)/C(=C\c2ccncc2)SC1=Nc1ccccc1,active: -67%
3,Cc1ccccc1-n1nc2c(c1NC(=O)c1cc3ccccc3oc1=O)CS(=O)(=O)C2,inactive: -17.3%
4,O=C(Nc1ccc2c(c1)C(=O)NC2=O)c1cc(Cl)ccc1Cl,inactive: -22.4%
5,N#Cc1c(C(F)(F)F)cc(-c2ccccc2)nc1SCc1nc(N)nc(N2CCOCC2)n1,inconclusive: -43.6%
6,COc1ccc(N/C=C/C(=O)C(C)(C)C)cc1,inconclusive: -41.6%
7,C=CCn1c(SCC(=O)N(CC)c2c(N)n(Cc3ccccc3)c(=O)[nH]c2=O)nnc1-c1ccccc1OC,inactive: -2.39%
8,CC(C)(C)OC(=O)NCCCCCNC(=O)c1[nH]cnc1C(=O)Nc1cc(Br)ccc1F,inconclusive: -48.4%
9,CC(C(=O)N1CCCCCC1)c1ccc([N+](=O)[O-])cc1 (stereo not given),inactive: -29.4%
10,COc1ccc(CNC(=O)Cn2ccc3cc(S(=O)(=O)N4CCCCCC4)ccc32)c(OC)c1,inactive: -15.4%
11,O=C(COc1ccccc1-c1ccccc1)N/N=C/c1cccc2ccccc12,active: -81.7%
12,Cc1ccc(C)c(N2CCN(C(=O)COc3cc(=O)n(C)c4ccccc34)CC2)c1,inactive: -23.9%
13,COc1cc2c(-c3ccc4cc[nH]c4c3)c(-c3ccsc3)oc(=O)c2cc1OC,inconclusive: -56.7%
14,Cc1ccc([N+](=O)[O-])cc1NC(=O)CN(C(=O)c1ccc(Cl)cc1)C1CCCCC1,inconclusive: -44.6%
15,CCOc1ccc(NC(=O)CSc2nc(-c3cccs3)cc(C(F)(F)F)n2)c([N+](=O)[O-])c1,active: -101%
16,O=[N+]([O-])c1c(NCc2ccccc2)cc(N2CCc3ccccc3C2)c2nonc12,inconclusive: -46%
17,CCN(CC)CCNC(=O)Cn1ncc2c3ccccc3n(Cc3ccccc3C)c2c1=O,inconclusive: -47.5%
18,O=C(C1=C(O)C(=O)N(c2nc3ccc(Cl)cc3s2)C1c1ccco1)c1ccco1 (stereo not given),inactive: -7.39%
19,COc1ccc(C(=O)c2cn(Cc3cccc(C)c3)c3cc4c(cc3c2=O)OCCO4)cc1OC,inactive: -2.81%
20,Cc1ccc(C(C(=O)NCC2CCCO2)N(C(=O)c2snc(C(N)=O)c2N)c2ccc(C)c(C)c2)o1 (stereo not given),inconclusive: -57.4%
21,Nc1nc(N)c(Cc2ccc(Cl)cc2Cl)c(N)n1,active: -73.5%
22,COc1ccccc1N=c1scc(-c2ccc3c(c2)NC(=O)CO3)n1CC1CCCO1 (stereo not given),inconclusive: -57.6%

row,SMILES,"activity change, negative = inhibition"
1,COc1ccc(S(=O)(=O)NCCc2cn3ccsc3n2)cc1,inconclusive: -43.2%
2,COc1ccc(OC)c(NC(=O)c2ccccc2N(C)S(=O)(=O)c2ccc(C)cc2)c1,inactive: 17.1%
3,Cc1cccc2sc(NC(=O)C3CSC4(C)CCC(=O)N34)nc12 (stereo not given),inconclusive: -52.3%
4,COc1ccccc1N1C(=N)S/C(=C\c2ccc(-c3ccccc3C(=O)O)o2)C1=O,inconclusive: -55.5%
5,CC(C)(C)OC(=O)N(CCc1ccccc1)Cc1ccc(OCc2cccc(NC(=O)C3CC3)c2)cc1,inconclusive: -46.7%
6,CCc1ccc(NC(=O)c2ccc3c(c2)c(C)c(C)n3Cc2ccccc2)cc1,inconclusive: 0%
7,COc1ccc(NC(=O)CCCN2C(=O)CCC2=O)cc1Cl,inconclusive: -40.8%
8,Cc1nnc2c3ccccc3nc(N3CCN(c4cccc(Cl)c4)CC3)n12,inconclusive: 0%
9,COC(=O)C(O)(c1ccc(NC(=O)c2cccs2)cc1)C(F)(F)F (stereo not given),inactive: -25.5%
10,CCc1ccc(-n2c(SCC(=O)Nc3cc(C)[nH]n3)nc3[nH]ncc3c2=O)cc1,inconclusive: -53%
11,Cc1ccsc1CN(C)Cc1nc(C2CC2)no1,inactive: -29.3%
12,Oc1ccc(Nc2nc(-c3ccc(Cl)cc3)nc3ccccc23)cc1,active: -61.1%
13,NS(=O)(=O)c1ccc(CNC(=S)Nc2ccc(Cl)c(Cl)c2)cc1,active: -73.7%
14,CN(C(=O)c1cccc(NC(=O)Cc2ccc(NC(=O)C3CCCN(C(=O)c4ccccc4)C3)cc2)c1)C1CCCC1 (stereo not given),inconclusive: -44.7%
15,Cc1ccc(CC(=O)Nc2ccccc2-c2ccccc2)cc1C,inconclusive: -58.2%
16,CC1=C(C(=O)Nc2ccccc2)C(c2ccccc2Cl)n2ncc(C(=O)Nc3cccc(C)c3)c2N1 (stereo not given),inconclusive: -45.8%
17,CC1CN(S(=O)(=O)c2ccc(C(=O)Nc3ccccc3F)cc2)CC(C)O1 (stereo not given),inconclusive: -44.5%
18,Cc1cccc(NS(=O)(=O)c2c(C)nc3scc(C)n3c2=O)c1,active: -70%
19,Cn1cc(S(=O)(=O)N2CCCCCC2)cc1C(=O)N1CCN(c2ccc(Cl)cc2)CC1,inconclusive: -56.7%
20,O=c1c2ccccc2[nH]c(=S)n1Cc1cccs1,active: -68.2%
21,Cc1nn(C)c2c1c(C(F)(F)F)cc(=O)n2C(C)C(=O)N1CCN(c2ccccc2)CC1 (stereo not given),inactive: 4.29%
22,CC(NC(=O)COC(=O)c1cc(NS(=O)(=O)c2ccc(Cl)c([N+](=O)[O-])c2)ccc1O)C1CC2CCC1C2 (stereo not given),inconclusive: -46.6%

row,SMILES,"activity change, negative = inhibition"
1,Cc1noc(C)c1COc1cccc(C(=O)OC(C)C#N)c1 (stereo not given),inactive: 21.9%
2,Cc1ccc(OCc2cc(C(=O)N3CCc4[nH]cnc4C3c3ccccn3)no2)cc1C (stereo not given),inconclusive: -41%
3,Cc1ccccc1CNC(=O)C1CCCN(c2nnc(-n3c(C)ccc3C)s2)C1 (stereo not given),inactive: -34.6%
4,CC(NC(=O)Cn1nc(C(F)(F)F)c2c1CCC2)c1ccccc1 (stereo not given),inconclusive: -47.9%
5,CC(C)C(C(=O)NCc1ccccc1)N(C)Cc1ccc(Cl)c(Cl)c1 (stereo not given),inactive: -26.7%
6,CN=C(Nc1cccc(OC)c1)SC1CC(=O)N(c2ccc(C(=O)O)cc2)C1=O (stereo not given),inconclusive: -41.1%
7,COc1ccc(C(CCNC(C)c2ccccc2)C(C)C)cc1 (stereo not given),inconclusive: -47.3%
8,N#Cc1ccccc1S(=O)(=O)N1CCC(Oc2ccc(-n3cnnn3)cc2)CC1,inactive: -27.1%
9,CCc1c(C)nc2nncn2c1Nc1cccc(C)c1,inactive: -39.7%
10,Cc1nc2ccccc2c(=O)n1NC(=O)c1ccc(F)cc1Cl,inactive: 64.5%
11,COc1ccc(N2CCN(C(=O)CSc3nc4ccccc4c(=O)[nH]3)CC2)cc1,inactive: 27.1%
12,CCC(C)NC(=O)c1c(N)n(/N=C/c2ccccn2)c2nc3ccccc3nc12 (stereo not given),inconclusive: -41.1%
13,COC(=O)N/N=C/c1ccccc1OCc1ccccc1,inconclusive: -50.6%
14,COc1ccccc1CNC(=O)CCCn1c(=O)c2cccn2c2ccccc21,inactive: -8.84%
15,CCc1ccccc1NC(=O)CN(C)C(=O)COC(=O)c1cccnc1Cl,inconclusive: -51.7%
16,CCn1ncc(CNC(=O)C2(C)CC2(Br)Br)c1C (stereo not given),inconclusive: -45.8%
17,O=C(NN=Cc1cc(Cl)ccc1[N+](=O)[O-])c1cccc2ccccc12,inactive: 5.54%
18,CCn1c(-c2cc(-c3ccc(C)cc3)nc3ccccc23)n[nH]c1=S,inactive: -12.6%
19,CCC(=O)N1CCc2cc(S(=O)(=O)CCC(=O)NCc3ccco3)ccc21,inconclusive: -41.6%

# Six structures already listed, ordered by formula weight, ascending.
row,SMILES,"activity change, negative = inhibition"
9,CCc1c(C)nc2nncn2c1Nc1cccc(C)c1,inactive: -39.7%
10,Cc1nc2ccccc2c(=O)n1NC(=O)c1ccc(F)cc1Cl,inactive: 64.5%
4,CC(NC(=O)Cn1nc(C(F)(F)F)c2c1CCC2)c1ccccc1 (stereo not given),inconclusive: -47.9%
17,O=C(NN=Cc1cc(Cl)ccc1[N+](=O)[O-])c1cccc2ccccc12,inactive: 5.54%
14,COc1ccccc1CNC(=O)CCCn1c(=O)c2cccn2c2ccccc21,inactive: -8.84%
11,COc1ccc(N2CCN(C(=O)CSc3nc4ccccc4c(=O)[nH]3)CC2)cc1,inactive: 27.1%
